Assay results reported in PubChem BioAssay AID330 (DTP/NCI, 2004).
The list is a part of this screen's results and no random one: it is rich in T/C values a quarter to a half above the control, in often repeated tests (any T/C) and in doses without a T/C. Further doses and runs are listed elsewhere. T/C gives the treated animals as a percentage of the vehicle group. Some doses have a count of surviving animals in place of a T/C: the source holds a T/C of zero for them, seemingly a mark for toxic or unscored doses. Some survivor counts are full or nearly so, which does not show that the dose was tolerated: the source hardly ever lists a survival T/C far under the control, and the zero likely stands for such cases as well. Counts of survivors are from the toxicity check (mostly the fifth day) where no day follows; animals may have died later. Schedules are NCI's codes, read here as Q, the interval in days (D) or hours (H), X, the number of doses. Some entries were tested several times; the values are given in rising order. Where survival is the endpoint, this PubChem deposit counts one and a half times the control or more as active, and values a quarter to a half above the control carry no call in these data; other NCI protocols may use other cut-offs.

System: P388 leukemia ip, CD2F1 mice, survival T/C
Assay: NCI In Vivo Anticancer Drug Screen. Data for tumor model P388 Leukemia (intraperitoneal) in CD2F1 (CDF1) mice
Details: T/C endpoint: median survival time, higher T/C = longer survival
[1] = dose: 200.0 mg/kg/injection, schedule: Q01DX005 (ip), vehicle: saline with Tween-80
[2] = dose: 50.0 mg/kg/injection, schedule: Q01DX005 (ip), vehicle: saline with Tween-80
[3] = dose: 100.0 mg/kg/injection, schedule: Q01DX005 (ip), vehicle: saline with Tween-80
[4] = dose: 200.0 mg/kg/injection, schedule: Q01DX009 (ip), vehicle: saline with Tween-80
[5] = dose: 400.0 mg/kg/injection, schedule: Q01DX005 (ip), vehicle: saline with Tween-80
[6] = dose: 50.0 mg/kg/injection, schedule: Q01DX009 (ip), vehicle: Klucel (hydroxypropylcellulose) (HPC)
[7] = dose: 100.0 mg/kg/injection, schedule: Q01DX009 (ip), vehicle: Klucel (hydroxypropylcellulose) (HPC)
[8] = dose: 200.0 mg/kg/injection, schedule: Q01DX009 (ip), vehicle: Klucel (hydroxypropylcellulose) (HPC)
[9] = dose: 30.0 mg/kg/injection, schedule: Q01DX005 (ip), vehicle: Klucel (hydroxypropylcellulose) (HPC)
[10] = dose: 60.0 mg/kg/injection, schedule: Q01DX005 (ip), vehicle: Klucel (hydroxypropylcellulose) (HPC)
[11] = dose: 120.0 mg/kg/injection, schedule: Q01DX005 (ip), vehicle: Klucel (hydroxypropylcellulose) (HPC)
[12] = dose: 240.0 mg/kg/injection, schedule: Q01DX005 (ip), vehicle: Klucel (hydroxypropylcellulose) (HPC)
[13] = dose: 100.0 mg/kg/injection, schedule: Q01DX009 (ip), vehicle: saline with Tween-80

Structure (SMILES): COc1ccc2cc(-c3ccccc3)[s+]cc2c1
- survivor count (dose: 12.5 mg/kg/injection, schedule: Q01DX009 (ip), vehicle: DMSO): 5 of 5
- survivor count (dose: 25.0 mg/kg/injection, schedule: Q01DX009 (ip), vehicle: DMSO): 6 of 6
- survivor count (dose: 50.0 mg/kg/injection, schedule: Q01DX009 (ip), vehicle: DMSO): 6 of 6
- survivor count (dose: 100.0 mg/kg/injection, schedule: Q01DX009 (ip), vehicle: DMSO): 5 of 5
- survivor count (dose: 200.0 mg/kg/injection, schedule: Q01DX009 (ip), vehicle: DMSO): 2 of 5
- survivor count (dose: 400.0 mg/kg/injection, schedule: Q01DX009 (ip), vehicle: DMSO): 1 of 5

Structure (SMILES): CC(C)N(Cc1ccccc1)S(=O)(=O)c1n[nH]c(C(C)(C)C)n1
- survivor count [1]: 4 of 6

Structure (SMILES): ClCCN(CCCl)CCNc1ccnc2cc(Cl)ccc12
- survivor count (dose: 0.4 mg/kg/injection, schedule: Q01DX009 (ip), vehicle: saline): 6 of 6
- T/C (dose: 1.32 mg/kg/injection, schedule: Q04DX003 (ip), vehicle: saline): 127 % of control
- T/C (dose: 2.0 mg/kg/injection, schedule: Q01DX009 (ip), vehicle: saline sonified): 136 % of control
- T/C (dose: 3.0 mg/kg/injection, schedule: Q04DX003 (ip), vehicle: saline): 127 % of control

Structure (SMILES): CC(=O)C(C(C)=O)[N+](=O)[O-].CC(=O)C(C(C)=O)[N+](=O)[O-].[Cu]
- survivor count (dose: 25.0 mg/kg/injection, schedule: Q01DX005 (ip), vehicle: saline with Tween-80): 2 of 5
- survivor count [2]: 1 of 5
- survivor count [3]: 0 of 5
- survivor count [1]: 0 of 5

Structure (SMILES): CN(C)CSCN(C)C
- survivor count [4]: 2 of 6

Structure (SMILES): O=C(O)/C(Br)=C(/Br)C(=O)O
- survivor count (dose: 400.0 mg/kg/injection, schedule: Q04DX002 (ip), vehicle: saline with Tween-80): 5 of 6

Structure (SMILES): C/C=C(/C)C(=O)O[C@H]1CC[C@@]2(C)[C@@H]3CC[C@H]4[C@]5(O)C[C@H](O)[C@@]6(O)[C@@H](CN7C[C@@H](C)CC[C@H]7[C@@]6(C)O)[C@]5(O)C[C@@]42O[C@@]13O
- survivor count (dose: 3.12 mg/kg/injection, schedule: Q01DX009 (ip), vehicle: saline with Tween-80): 3 of 6
- survivor count (dose: 12.5 mg/kg/injection, schedule: Q01DX009 (ip), vehicle: saline with Tween-80): 0 of 6
- survivor count (dose: 25.0 mg/kg/injection, schedule: Q01DX009 (ip), vehicle: saline with Tween-80): 0 of 6
- survivor count (dose: 50.0 mg/kg/injection, schedule: Q01DX009 (ip), vehicle: saline with Tween-80): 0 of 6

Structure (SMILES): CSc1ccnc2ccccc12
- survivor count (dose: 100.0 mg/kg/injection, schedule: Q01DX009 (ip), vehicle: other): 2 of 6
- survivor count (dose: 200.0 mg/kg/injection, schedule: Q01DX009 (ip), vehicle: other): 0 of 6

Structure (SMILES): CCOc1ccc(C(C)c2cc3c(cc2OCC)OCO3)cc1 (centres undefined)
- T/C [2]: 136 % of control
- T/C [3]: 125 % of control
- survivor count [3]: 3 of 6 and 4 of 6
- survivor count [1]: 0 of 6
- survivor count [5]: 0 of 6

Structure (SMILES): CC(C)C(C(=O)CCN(C)C)c1ccc(Cl)cc1 (centres undefined)
- survivor count [1]: 1 of 5

Structure (SMILES): C/C(=N\NC(=S)N(C)C)c1cnccn1
- survivor count [3]: 2 of 6
- survivor count [1]: 4 of 6

Structure (SMILES): CCCCCCCCCCC(O)C(=O)O (centres undefined)
- survivor count [4]: 4 of 6

Structure (SMILES): CCOC(=O)C1=CNc2c(C#N)cnn2C1(C(=O)OCC)c1cn(C)c2ccccc12 (centres undefined)
- survivor count [2]: 6 of 6
- survivor count [3]: 6 of 6
- survivor count [1]: 6 of 6

Structure (SMILES): OCC1OC(n2cnc3c(NO)nc(NO)nc32)C(O)C1O (centres undefined)
- T/C (dose: 9.0 mg/kg/injection, schedule: Q01DX009 (ip), vehicle: saline): 126 % of control
- T/C (dose: 9.4 mg/kg/injection, schedule: Q01DX009 (ip), vehicle: saline): 125 % of control
- T/C (dose: 23.7 mg/kg/injection, schedule: Q01DX009 (ip), vehicle: saline): 140 % of control
- T/C (dose: 36.0 mg/kg/injection, schedule: Q01DX009 (ip), vehicle: saline): 127 and 145 % of control

Structure (SMILES): Cc1c([O-])[n+](Cc2ccccc2)nn1C
- survivor count (dose: 50.0 mg/kg/injection, schedule: Q01DX009 (ip), vehicle: water): 3 of 3
- survivor count (dose: 100.0 mg/kg/injection, schedule: Q01DX009 (ip), vehicle: water): 3 of 3
- survivor count (dose: 200.0 mg/kg/injection, schedule: Q01DX009 (ip), vehicle: water): 3 of 3
- survivor count (dose: 400.0 mg/kg/injection, schedule: Q01DX009 (ip), vehicle: water): 3 of 3

Structure (SMILES): CCOC(=O)NC(NC(=O)OCC)C(=O)Nc1cccc2c(OC(=O)C(NC(=O)OCC)NC(=O)OCC)c(N=Nc3ccc(S(=O)(=O)Nc4nccs4)cc3)cc(N=Nc3ccc(S(=O)(=O)Nc4nccs4)cc3)c12 (tested in a mixture with another compound)
- T/C [2]: 127 % of control
- T/C [1]: 129 % of control
- survivor count [1]: 1 of 5
- survivor count [5]: 2 of 5

Structure (SMILES): N[C@H]1c2ccsc2C(=O)[C@H]1O
- T/C (dose: 120.0 mg/kg/injection, schedule: Q01DX005 (ip), vehicle: saline): 145 % of control

Structure (SMILES): COC(=O)C1C2c3ccccc3C(C1C(=O)OC)[n+]1ccccc12 (centres undefined)
- survivor count (dose: 200.0 mg/kg/injection, schedule: Q01DX005 (ip), vehicle: Klucel (hydroxypropylcellulose) (HPC)): 3 of 6

Structure (SMILES): FC(F)(F)C1=C(C(F)(F)F)SP23(OCCC(CO2)O3)S1 (centres undefined)
- T/C [6]: 130 % of control
- T/C [7]: 130 % of control
- survivor count [8]: 1 of 6

Structure (SMILES): C[Se]C([Se]C)=C([Se]C)[Se]C
- survivor count (dose: 120.0 mg/kg/injection, schedule: Q01DX005 (ip), vehicle: saline with Tween-80): 4 of 6
- survivor count (dose: 240.0 mg/kg/injection, schedule: Q01DX005 (ip), vehicle: saline with Tween-80): 0 of 6

Structure (SMILES): O=[N+]([O-])c1cc(Cl)c(Cl)cc1NS(=O)(=O)c1ccccc1
- survivor count (dose: 600.0 mg/kg/injection, schedule: Q01DX009 (ip), vehicle: saline with Tween-80): 4 of 6

Structure (SMILES): CS/N=C(\c1ccccc1)N(C)C
- survivor count [9]: 0 of 6
- survivor count [10]: 0 of 6
- survivor count [11]: 0 of 6
- survivor count [12]: 0 of 6

Structure (SMILES): Cc1ccc(-c2cnc3c(n2)c(=O)[nH]c(=O)n3C)cc1
- survivor count (dose: 400.0 mg/kg/injection, schedule: Q04DX003 (ip), vehicle: Klucel (hydroxypropylcellulose) (HPC)): 2 of 6

Structure (SMILES): CC(C)(C)NC=C(C#N)C#N
- survivor count [6]: 3 of 6
- survivor count [7]: 2 of 6
- survivor count [13]: 0 of 6
- survivor count [8]: 0 of 6
- survivor count [4]: 0 of 6
- survivor count (dose: 300.0 mg/kg/injection, schedule: Q01DX009 (ip), vehicle: Klucel (hydroxypropylcellulose) (HPC)): 0 of 6

Structure (SMILES): CCc1nc(N)nc(N)c1-c1ccc(NC(C)c2ccccc2)c([N+](=O)[O-])c1 (centres undefined)
- T/C [9]: 131 and 132 % of control
- survivor count [10]: 0 of 6
- survivor count [11]: 0 of 6
- survivor count [12]: 0 of 6

Structure (SMILES): CN(C)c1ncnc2c1cnn2C
- survivor count [13]: 6 of 6
- survivor count [4]: 1 of 6

Structure (SMILES): O=C1C=CC(=O)N1c1ccc(Cl)cc1
- survivor count (dose: 16.0 mg/kg/injection, schedule: Q01DX009 (ip), vehicle: Klucel (hydroxypropylcellulose) (HPC)): 0 of 6
- survivor count (dose: 32.0 mg/kg/injection, schedule: Q01DX009 (ip), vehicle: Klucel (hydroxypropylcellulose) (HPC)): 3 of 6

Structure (SMILES): NC(CC(=O)NO)C(=O)O (centres undefined)
- T/C (dose: 800.0 mg/kg/injection, schedule: Q01DX009 (ip), vehicle: saline): 145 % of control

Structure (SMILES): Cc1c(O)c2c(c(O)c1Cc1ccc(C#N)cc1)C(=O)c1ccccc1C2=O
- survivor count (dose: 12.5 mg/kg/injection, schedule: Q01DX009 (ip), vehicle: Klucel (hydroxypropylcellulose) (HPC)): 6 of 6
- survivor count (dose: 25.0 mg/kg/injection, schedule: Q01DX009 (ip), vehicle: Klucel (hydroxypropylcellulose) (HPC)): 6 of 6
- survivor count [6]: 6 of 6
- survivor count [7]: 6 of 6
